{
  "sequences": {"note": "Chains of the proteins cited; added tags and fusions are not shown. Chains listed by the source or under a name are the forms on record and can include a tag or linker.", "LXRα (mouse hepatocyte nuclear extract) + PARP1 (mouse hepatocyte nuclear extract), one chain, as listed by the source, chain 1 of 2": "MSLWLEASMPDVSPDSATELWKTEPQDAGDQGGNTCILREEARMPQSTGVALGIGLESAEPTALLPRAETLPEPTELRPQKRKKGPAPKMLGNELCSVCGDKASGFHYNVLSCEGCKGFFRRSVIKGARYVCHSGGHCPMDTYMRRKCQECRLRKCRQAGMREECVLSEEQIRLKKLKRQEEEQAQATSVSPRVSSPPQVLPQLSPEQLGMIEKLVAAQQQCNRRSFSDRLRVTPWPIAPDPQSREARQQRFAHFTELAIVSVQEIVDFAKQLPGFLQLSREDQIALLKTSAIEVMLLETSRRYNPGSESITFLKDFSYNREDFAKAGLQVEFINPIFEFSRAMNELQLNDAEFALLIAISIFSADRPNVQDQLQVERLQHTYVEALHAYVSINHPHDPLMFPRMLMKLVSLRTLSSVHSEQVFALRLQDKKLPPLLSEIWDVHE", "LXRα (mouse hepatocyte nuclear extract) + PARP1 (mouse hepatocyte nuclear extract), one chain, as listed by the source, chain 2 of 2": "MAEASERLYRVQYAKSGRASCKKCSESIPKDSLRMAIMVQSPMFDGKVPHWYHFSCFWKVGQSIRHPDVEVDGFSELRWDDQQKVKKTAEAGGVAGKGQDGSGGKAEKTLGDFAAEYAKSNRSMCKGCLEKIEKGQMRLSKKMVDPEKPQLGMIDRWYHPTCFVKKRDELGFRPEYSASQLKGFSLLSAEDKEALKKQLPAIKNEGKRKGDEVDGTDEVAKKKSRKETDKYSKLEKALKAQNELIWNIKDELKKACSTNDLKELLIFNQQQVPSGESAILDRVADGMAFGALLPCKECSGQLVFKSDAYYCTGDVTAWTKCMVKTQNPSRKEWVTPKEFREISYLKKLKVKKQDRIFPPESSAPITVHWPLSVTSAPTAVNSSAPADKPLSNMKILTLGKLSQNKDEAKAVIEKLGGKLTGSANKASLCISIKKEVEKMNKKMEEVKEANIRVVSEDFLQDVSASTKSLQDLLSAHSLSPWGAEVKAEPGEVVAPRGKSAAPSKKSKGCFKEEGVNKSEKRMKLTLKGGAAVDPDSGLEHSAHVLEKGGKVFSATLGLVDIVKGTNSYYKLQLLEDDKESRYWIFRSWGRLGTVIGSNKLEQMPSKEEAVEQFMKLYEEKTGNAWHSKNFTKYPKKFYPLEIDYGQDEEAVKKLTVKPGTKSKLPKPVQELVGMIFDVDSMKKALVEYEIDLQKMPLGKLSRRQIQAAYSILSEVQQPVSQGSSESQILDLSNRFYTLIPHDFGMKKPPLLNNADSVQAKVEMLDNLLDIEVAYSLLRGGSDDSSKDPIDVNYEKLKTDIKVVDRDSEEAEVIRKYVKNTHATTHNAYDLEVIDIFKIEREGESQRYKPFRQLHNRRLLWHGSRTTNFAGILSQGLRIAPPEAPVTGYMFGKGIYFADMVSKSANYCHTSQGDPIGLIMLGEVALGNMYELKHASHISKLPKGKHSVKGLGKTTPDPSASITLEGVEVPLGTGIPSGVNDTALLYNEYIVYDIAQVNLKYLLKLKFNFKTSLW"},
  "source": "paper PMC7545717",
  "key": {"[1]": {"system": "LXRα (recombinant, Abnova) + PARP1 (recombinant, Trevigen)", "experiment": "EMSA", "settings": "LightShift Chemiluminescent EMSA kit per manufacturer's protocol, recombinant protein, label: 5' biotin on each strand"}, "[2]": {"system": "LXRα (mouse hepatocyte nuclear extract) + PARP1 (mouse hepatocyte nuclear extract)", "experiment": "EMSA supershift", "settings": "WT hepatocyte nuclear extract, anti-PARP1 shifts the LXRα-LXRE band; LightShift Chemiluminescent EMSA kit per manufacturer's protocol; protein in an extract; label: 5' biotin on each strand"}},
  "note": "The exact form of at least one protein or probe is not confirmed. For part of these data: The comparison behind a weaker result is the experiment's own reference, which may not be listed here. For part of these data: At least one result comes from cells or an extract, where the contact may be indirect. For part of these data: At least one verdict rests on a figure or table, not on a statement of the authors.",
  "data": [
    {"sequence": "CAAGGATGTGTCCCTTCAACTCAATGTGGC (double strand) [LXRE consensus probe]", "values": [
      {"measurement": "binding result", "setting": "[1]; PARP1 + NAD+ + active (nicked) DNA, LXRα poly(ADP-ribosyl)ated", "result": "binds more weakly"},
      {"measurement": "binding result", "setting": "[1]; unactivated PARP1, no NAD+/active DNA", "result": "binds"},
      {"measurement": "binding result", "setting": "[2]", "result": "binds"}
    ]}
  ]
}
